The test addresses T1, ZFP36L2 (human (endogenous in A549, PC9, A549-DDP, PC9-DDP)) (UniProt P47974).
T1 sequence: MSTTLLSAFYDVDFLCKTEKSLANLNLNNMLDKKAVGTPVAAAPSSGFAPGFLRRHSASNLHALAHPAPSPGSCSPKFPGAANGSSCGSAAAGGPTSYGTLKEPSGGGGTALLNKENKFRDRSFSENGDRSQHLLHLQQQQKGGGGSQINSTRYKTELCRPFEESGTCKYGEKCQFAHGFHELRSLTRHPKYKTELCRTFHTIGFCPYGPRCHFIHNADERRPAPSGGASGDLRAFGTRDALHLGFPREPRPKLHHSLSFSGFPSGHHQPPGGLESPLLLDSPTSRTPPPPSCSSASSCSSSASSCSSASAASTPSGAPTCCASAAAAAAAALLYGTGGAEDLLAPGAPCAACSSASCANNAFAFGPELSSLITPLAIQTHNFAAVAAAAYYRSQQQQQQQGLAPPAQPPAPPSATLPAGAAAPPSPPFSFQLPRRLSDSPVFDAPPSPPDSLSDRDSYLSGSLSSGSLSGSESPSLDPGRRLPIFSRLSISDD
Description: co-IP; endogenous; Co-IP kit (Thermo #26149); 5 mg of cell protein with 10 ug of ZFP36L2 antibody or IgG control overnight at 4 °C, eluate blotted for PROCA1; A549, PC9, A549-DDP and PC9-DDP cells; also A549 with shLINC00173 and A549-DDP with LINC00173 overexpressed, cultured with cisplatin.

No constants are given. Whether binding was seen depends on the method and setting. Binding seen in cells or lysates may run through a third protein. Some results given as binding are weak or reduced against the parent protein; the word gives no strength.

B1: PROCA1 (protein, UniProt Q8NCQ7 1-364)
chain: MWVRTTLTIERWTKEKTEPKARSWDEALSDVNRLPSWERGHLLAGVASSTDVSTFSEGGDCKEPDKCCWRHKQCTGHIIYPFASDCVRHSLHLHSVNHCNCNSRLKDSSEDSSSSRGAGPTCSHVIESPCFELTPEEEHVERFRYGWCKSYRPVSVAVIHHPLYHECGADDLNEEEEEEEEESKPPIPTQVGPATASPDLGTSMATGTPDSTAPITIWRSESPTGKGQGSKVIKKVKKKKEKEKDKEEMDEKAKLKKKAKKGQLTKKKSPVKLEPSPPDVSRSLSARQLARMSESSPESREELESEDSYNGRGQGELSSEDIVESSSPRKRENTVQAKKTGAKPSQARKVNKRKSPPGSNPNLS
With B1, the binding result is given as “binds”.

These data come from publication PMC9830831.
